Percent effect of library compounds

From ChEMBL document CHEMBL3988442, “University of Dundee, Small-Polar-MMV Screening Library” (2021).

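Phenotypic screen: M. tuberculosis growth, cholesterol and DPPC medium, 4 days; the read-out is not stated. Concentration: 50 µM. The record gives no direction; compounds that gave an IC50 in retests scored well above the rest, so higher reads as more growth inhibition. Size under these conditions: about 69,000 compounds, about 370 of them at 50% or above in at least one test.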

Results are given as percent effect.
How 0% and 100% were set is not recorded. Most values in the screen are low, and negative values occur.
Compounds were drawn at random from those tested, without regard to their results.
Two or more numbers in one place are separate tests of the same structure; such repeats can differ widely.

CN(C)C(CNC(=O)c1nc(N2CCCC2)ncc1Cl)c1ccco1 (stereo not given) gave -9.82%.
CCc1nc2c(c(C)c(C)n2Cc2cccnc2)c(N)c1C gave -14.52%.
CC(C)c1cc(C(=O)NCCN2CCOCC2)nc(N2CCCC2)n1 gave -13.73%.
Cc1cc2nccc(C3CCCN(C(=O)c4ccccc4F)C3)n2n1 (stereo not given) gave -10.98%.
Cc1[nH]c2c(F)cccc2c1CC(=O)N1CCN(C2CCSCC2)CC1 gave 14.87%.
O=C(c1cccs1)N1CCc2ncnc(C3CCOC3)c2CC1 (stereo not given) gave 8.684% and -8.132%.
COCCCN1CCN([C@@H]2c3ccccc3C3(CCNCC3)[C@H]2O)CC1 gave 8.778%.
CNS(=O)(=O)CC1CCCN1C(=O)c1ccc2cc[nH]c2c1 (stereo not given) gave 3.116%.
[H][C@@]12OCCN(C(=O)c3nn(C)c4ccccc34)[C@@]1([H])CC[C@@H]2OCC gave -20.18%.
O=c1cc(N2CCNCC2)cnn1CCc1ccc(F)cc1 gave 5.925%.
Cc1ccc2ncn(C(C)Cn3cccn3)c(=O)c2c1 (stereo not given) gave -1.118%.
CN(CCCc1nccn1C)c1nccc(N2CCC(O)C2)n1 (stereo not given) gave -12.17%.
COc1ccc(C(O)CN2CC(n3nc(C)cc3C)C2)cc1 (stereo not given) gave 3.048%.
CC(=O)N1CCN(C(=O)NCc2ccccc2Cn2ccnc2)CC1 gave 2.374% and -13.77%.
[H][C@]12CC[C@]([H])(CN(C3Cc4ccccc4C3)C1)N(C(=O)c1ccc[nH]1)C2 gave 9.409%.
O=C(NCCNc1ncccn1)N1CCSCC1 gave -11.48%.
Cc1nn(C)c(N2CCOCC2)c1CNC1CCC(O)CC1 (stereo not given) gave 1.049%.
Cc1c2ncn(CC(=O)N(C)C)c(=O)c2nn1C gave -25.38%.
[H][C@]12CCCCN1CCC[C@@]2(O)CNCC1(Cn2cccn2)CC1 gave 3.218%.
Cl.c1cnc(N2CCCC(NCc3ccc(-n4ccnc4)cc3)C2)nc1 (stereo not given) gave 6.055%.
COc1ccc(C(C)NC(=O)c2nn(C)c(C)c2Br)cc1 (stereo not given) gave -0.8417%.
CC(C)C1CCN(C(=O)NCC(=O)N(C)CC(F)(F)F)CC1 gave -1.93%.
O=S(=O)(c1ccccc1F)N1CCCC(c2nccs2)C1 (stereo not given) gave 9.665%.
c1cc(-c2noc([C@@H]3CCCN3CC3CC3)n2)cc(N2CCCC2)n1 gave 0.8245%.
Cc1cc(O)nc(C2CN(CCC(F)(F)F)CCO2)n1 (stereo not given) gave -4.919%.
c1ncn(CC2CN(Cc3noc(C4CC4)n3)CCO2)n1 (stereo not given) gave -25.16%.
CC(C)N(Cc1ccccn1)S(=O)(=O)N1CCCC1c1ccco1 (stereo not given) gave 2.905%.
O=C(O)C(F)(F)F.O=C(O)C(F)(F)F.[H][C@@]12CN(Cc3csc(C)n3)CCO[C@]1([H])CN(Cc1ccsc1)C2 gave 5.095%.
COc1cccc(CNC(=O)CN2CCCCC2Cn2cccn2)c1 (stereo not given) gave 2.303%.
[H][C@]12C[C@@H](CN3CCCC3)N(C)[C@@]1([H])CCN(C(=O)c1cnccn1)C2 gave -3.119%.
COc1ccc(N2CCC(NC(=O)c3ccc(C#N)cc3)CC2)cc1 gave 15.34%.
CN(CCc1ccccc1)c1cnn(CC(=O)N2CCOCC2)c(=O)c1 gave -2.437%.
Cc1nc(C(=O)N(CC2CCCO2)c2ccncc2)cs1 (stereo not given) gave -15.8%.
COCCN1CCN(C(=O)N2CCCC2)Cc2ccc(C)nc21.O=C(O)C(F)(F)F gave -33.32% and -31.48%.
CCc1noc(CN2CCOC3(CCCC3)C2)n1 gave -4.374%.
[H][C@@]12CCN(C(=O)c3cccnc3)C[C@]1([H])[C@@H](CNS(C)(=O)=O)OC2 gave 9.144%.
Cc1ccc2c(n1)N(CC1CC1)CCN(S(=O)(=O)C1CC1)C2.O=C(O)C(F)(F)F gave -12.5%.
CN1CCN(C2CCN(CCCOc3ccc(F)cc3)CC2)C1=O gave -25.14%.
COC(=O)C(c1ccccc1)N(C)C(=O)c1ccnc(C)n1 (stereo not given) gave 12%.

2 of the entries, repeated:

{"compound": "O=S(=O)(c1ccccc1F)N1CCCC(c2nccs2)C1", "stereo": "stereo not given", "percent effect": 9.665}
{"compound": "O=C(c1cccs1)N1CCc2ncnc(C3CCOC3)c2CC1", "stereo": "stereo not given", "percent effect": "8.684 and -8.132"}